Not every entry of the source has a single result; some have several. This list holds those alone. An entry can have further records. Results that share an entry differ for a reason that is not stated; dose, time, organism, isomer or construct need not be as stated for each record.
Assay: Ex vivo biodistribution
Conditions: after 2 min, anaesthetised rats

O=C(c1ccc(Cn2cnc3cccc([125I])c32)cc1)N1CC[C@H](N2CCCC2)C1 [[^125I]WYE-230949]
plateau radioactive concentration in plasma and whole blood: approximately 0.3 %ID/g and 0.2 – 0.3 %ID/g

— article PMC4277420, “Assessment of [^125I]WYE-230949 as a Novel Histamine H3 Receptor Radiopharmaceutical” (PLoS ONE, 2014)
